# According to the supplement of paper PMC10735217:
# Some of the results follow. Single values are uncertain here, since repeats match poorly.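 The human kidney-derived cells carry a stably integrated construct of eight TEAD-binding elements driving luciferase, read by luminescence in a drug-repurposing library screen. A compound counts as a hit when its signal is more than five robust Z scores above the plate mean.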
# System: HEK293A TEAD-LUC reporter
# Test: TEAD-luciferase reporter activity (YAP activation), robust Z score vs plate; higher = stronger YAP/TEAD activation
# Conditions: 24 h
Structure (SMILES),TEAD-luciferase reporter activity (compound concentration: 200 nM),TEAD-luciferase reporter activity (compound concentration: 2 uM),TEAD-luciferase reporter activity (compound concentration: 10 uM)
C[C@]12CCC(=O)C=C1CCC1C2CC[C@@]2(C)C1CC[C@@H]2OC(O)C(Cl)(Cl)Cl (stereo partly specified),inactive: -1.61,inactive: -0.728,inactive: 0.672
CCCN1CCO[C@H]2c3cc(O)ccc3OC[C@H]21,inactive: -1.6,inactive: -1.43,inactive: -1.06
CC(C)[N+](C)(CCC(C(N)=O)(c1ccccc1)c1ccccc1)C(C)C,inactive: -1,–,inactive: -0.00528
CC(C)[N+](C)(CCC(C(N)=O)(c1ccccc1)c1ccccc1)C(C)C [Isopropamide iodide],–,inactive: -0.223,–
CS(=O)(=O)CS(=O)(=O)OCCCl [Clomesone],inactive: -0.399,inactive: -1.24,inactive: -0.884
CN1C(=O)[C@H](NC(=O)Nc2cccc(-c3noc(=O)[nH]3)c2)N=C(c2ccccc2)c2ccccc21,inactive: -1.37,inactive: 0.225,inactive: 1.19
CN[C@@H]1C[C@H]2O[C@@](C)([C@@H]1OC)n1c3ccccc3c3c4c(c5c6ccccc6n2c5c31)C(=O)NC4 [Staurosporine],inactive: 4.09,inactive: -2.77,inactive: -1.89
CC(C)OC(=O)[C@H](C)N[P@](=O)(CO[C@H](C)Cn1cnc2c(N)ncnc21)Oc1ccccc1 [Tenofovir alafenamide],inactive: 0.269,–,inactive: -1.56
CC(C)OC(=O)[C@H](C)N[P@](=O)(CO[C@H](C)Cn1cnc2c(N)ncnc21)Oc1ccccc1 [tenofovir alafenamide],–,inactive: -2.71,–
CC(=O)NC(CCN1[C@@H]2CC[C@H]1C[C@@H](n1c(C)nc3c1CN(C(=O)C(C)C)CC3)C2)c1cccc(F)c1 (stereo partly specified),inactive: 1.31,inactive: -1.19,inactive: -1.84
C[C@@]1(O)CC[C@H]2[C@H](CC[C@@H]3[C@@H]2CC[C@]2(C)[C@@H](C(=O)Cn4cc(C#N)cn4)CC[C@@H]32)C1,inactive: 0.586,–,inactive: 0.299
O=[N+]([O-])OCC(CO[N+](=O)[O-])O[N+](=O)[O-] [Nitroglycerin],inactive: 0.747,inactive: -0.762,inactive: 1.32
CNC(=O)Cn1c(=O)n(C2CCN(C3Cc4cccc5cccc3c45)CC2)c2ccccc21 (stereo unspecified),inactive: 2.64,inactive: -0.806,inactive: -0.0396
CCCCCCC(=O)O[C@H]1CC[C@H]2[C@@H]3CCC4=CC(=O)CC[C@]4(C)[C@H]3CC[C@]12C [delta6-Testosterone Enanthate],inactive: -0.543,–,inactive: 0.807
CCCCCCC(=O)O[C@H]1CC[C@H]2[C@@H]3CCC4=CC(=O)CC[C@]4(C)[C@H]3CC[C@]12C [Testosterone enanthate],–,inactive: 0.984,–
COC1CC(OC2CCC3(C=O)[C@H]4CCC5(C)C(C6=CC(=O)OC6)CCC5(O)[C@@H]4CCC3(O)C2)OC(C)C1O (stereo partly specified),active: 12.2,inactive: -2.04,active: 21.4
C#CC(C)(CC)OC(N)=O (stereo unspecified),inactive: 1.63,inactive: -1.85,inactive: 1.52
COCN1C(=O)CN=C(c2ccccc2)c2cc([N+](=O)[O-])ccc21 [Motrazepam],inactive: -0.818,inactive: -1.31,inactive: -1.38
CCc1cc2c(s1)-n1c(C)nnc1CN=C2c1ccccc1Cl [etizolam],inactive: -0.247,inactive: -0.207,inactive: 0.341

Structure (SMILES),TEAD-luciferase reporter activity (compound concentration: 200 nM),TEAD-luciferase reporter activity (compound concentration: 2 uM),TEAD-luciferase reporter activity (compound concentration: 10 uM)
CCOP(=S)(OCC)Oc1ccc2c(C)c(Cl)c(=O)oc2c1 [Coumaphos],inactive: -0.0838,inactive: -1.17,inactive: -0.0716
COc1cc(C(=O)N2CCC(CCN3CCC(C(N)=O)(c4ccccc4)CC3)(c3ccc(Cl)c(Cl)c3)C2)cc(OC)c1OC (stereo unspecified),inactive: 0.158,inactive: -0.353,inactive: 0.957
C[C@H]1CC(=O)C[C@@H]2CC[C@H]3[C@@H]4CC[C@H](O)[C@@]4(C)CC[C@@H]3[C@]21C [Mesterolone],inactive: -0.239,–,inactive: 2.79
COc1ccc(C(C)C)cc1CNC1C2CCN(CC2)C1C(c1ccccc1)c1ccccc1 (stereo unspecified),inactive: 0.0842,inactive: -0.0894,inactive: 0.179
C[C@H]1N=C(c2ccccc2Cl)c2cc([N+](=O)[O-])ccc2NC1=O,inactive: -1.74,inactive: -1.04,inactive: 0.199
COc1cc2c(cc1OC)C1CC(=O)C(CC(C)C)CN1CC2 (stereo unspecified) [Tetrabenazine],inactive: -2.84,–,inactive: 2.83
COc1cc2c(cc1OC)C1CC(=O)C(CC(C)C)CN1CC2 (stereo unspecified) [tetrabenazine MR],–,inactive: -0.367,–
COc1ccc(CC(=O)N2CNC(=O)C23CCN(C(=O)[C@@H](N)c2ccccc2)CC3)cc1,inactive: 0.632,–,inactive: -0.614
C[C@]12Cc3c[nH]nc3CC1CCC1C2CC[C@@]2(C)C1CC[C@]2(C)O (stereo partly specified) [Androstanazole],inactive: 1.01,inactive: 0.584,inactive: 3.87
O=[As]O[As]=O (stereo unspecified),–,inactive: 1.2,–
O=C(O)C1(c2ccc3c(c2)OC[C@H](Cc2ccc(-c4ccccc4)cc2)[C@H]3O)CCCC1,inactive: -0.332,inactive: -1.28,inactive: 1.19
c1ccc(C2(c3ccccc3)OC[C@H]([C@@H]3CCCCN3)O2)cc1 [Dexoxadrol],inactive: -1.12,inactive: -1.06,inactive: 0.988
COc1ccc(/C=C2\CCCN=C2c2cccnc2)c(OC)c1 [DMXB-Anabaseine],inactive: 0.588,inactive: -1.83,inactive: 0.361
C[C@]12CC[C@H](O)C[C@H]1CC[C@@H]1[C@@H]2CC[C@]2(C)[C@@](O)(c3ccoc3)CC[C@]12O [rostafuroxin],inactive: -0.945,inactive: -1.13,active: 9.03
C1CCC2[NH2+][Pt][NH2+]C2C1 (stereo unspecified),inactive: -0.0414,inactive: -0.427,inactive: 0.174
COc1ccc(C(=O)N2CCCC2C(=O)N2CCC(N3Cc4ccccc4C3=O)CC2)cc1 (stereo unspecified),inactive: -0.277,–,inactive: 0.649
CCCCC1C(=O)NC(=O)N(C2CCCCC2)C1=O (stereo unspecified),inactive: -1.75,inactive: -1.73,inactive: 0.5
CC[N+]1(CC)CCC(OC(=O)C(O)(c2ccccc2)c2ccccc2)C1 (stereo unspecified),inactive: -0.386,inactive: -1.62,inactive: -0.571
O=C1CN=C(c2ccccc2)c2ccccc2N1Cc1ccc([N+](=O)[O-])cc1,inactive: -1.87,inactive: -0.921,inactive: -1.88

Structure (SMILES),TEAD-luciferase reporter activity (compound concentration: 200 nM),TEAD-luciferase reporter activity (compound concentration: 2 uM),TEAD-luciferase reporter activity (compound concentration: 10 uM)
O=C(Cc1ccc(-c2ccc(N3CCOCC3)cc2)cn1)NCc1cccc(F)c1,inactive: 0.00162,active: 7.77,active: 14.8
C[C@H]1CCCC[C@@]1(c1cccs1)N1CCCCC1,inactive: -0.296,inactive: -0.45,active: 6.22
CO[C@@]12[C@H](COC(N)=O)C3=C(C(=O)C(C)=C(Nc4ccc(O)cc4)C3=O)N1C[C@@H]1N[C@@H]12,inactive: -0.481,inactive: -2.4,inactive: -1.63
[O-][N+]1=C(c2ccccc2)c2cc(Cl)ccc2N=C(O)C1,inactive: -0.355,inactive: -1.98,inactive: -1.77
C[C@@H](N)Cc1c[nH]cn1 [(R)-alpha-Methylhistamine],inactive: -0.143,inactive: -1.7,inactive: 3.13
"OCCSSCCO [2,2'-disulfanediyldiethanol]",inactive: -0.477,inactive: -1.34,inactive: -0.344
O=C(OCC1CC1)c1ncn2c1C1CCN1C(=O)c1c(Cl)cccc1-2 (stereo unspecified),inactive: -0.416,inactive: -1.08,inactive: -0.644
S=C1CN=C(c2ccccc2)c2cc(Cl)ccc2N1,inactive: 2.13,inactive: -2.39,inactive: 3.36
CN[C@@H]1C[C@@H](c2ccc(Cl)c(Cl)c2)c2ccccc21 [Indatraline],inactive: -0.0677,–,inactive: 0.498
CN[C@@H]1C[C@@H](c2ccc(Cl)c(Cl)c2)c2ccccc21,–,inactive: -1.07,–
CCCC[N+]1(C)[C@@H]2C[C@@H](OC(=O)[C@H](CO)c3ccccc3)C[C@H]1[C@@H]1O[C@@H]12 (stereo partly specified) [Scopolamine n-butylbromide],inactive: -0.869,inactive: -0.634,inactive: -0.193
O=C(Nc1ccc2ncccc2c1)C(=O)c1cn(Cc2ccc(Cl)cc2)c2ccccc12 [Entasobulin],inactive: 1.83,inactive: 3.61,active: 9.42
c1nc(NC2=NCC3(O2)CN2CC[C@H]3CC2)cc(n1)n1cncc1 (stereo unspecified),inactive: -0.564,inactive: -1.34,inactive: -1.35
CC(=O)OC1(C(C)CN(C)C)CCCCC1c1ccccc1 (stereo unspecified),inactive: -0.436,inactive: -1.55,inactive: -1.1
"Nc1ccncc1 [4-aminopyridine, Neurorecovery]",inactive: 0.0303,inactive: -1.9,inactive: 0.0175
CCCCCCCCC1OOC(CCCCCCCC(=O)OC)O1 (stereo unspecified),inactive: 0.601,inactive: -1.01,inactive: 3.49
CCN1CCCCC12Cc1ccccc1CN(C(=O)Cc1ccc(OC)cc1)C2 (stereo unspecified),inactive: -0.784,–,inactive: 1.26
CN1CCCC1CCSc1ccc(O)cc1 (stereo unspecified),inactive: -1.41,inactive: -1.76,inactive: 0.0227

# Rewritten bar-delimited: entries from further up
Structure (SMILES) | TEAD-luciferase reporter activity (compound concentration: 200 nM) | TEAD-luciferase reporter activity (compound concentration: 2 uM) | TEAD-luciferase reporter activity (compound concentration: 10 uM)
CN[C@@H]1C[C@@H](c2ccc(Cl)c(Cl)c2)c2ccccc21 [Indatraline] | inactive: -0.0677 | – | inactive: 0.498
CN[C@@H]1C[C@@H](c2ccc(Cl)c(Cl)c2)c2ccccc21 | – | inactive: -1.07 | –
CCCC[N+]1(C)[C@@H]2C[C@@H](OC(=O)[C@H](CO)c3ccccc3)C[C@H]1[C@@H]1O[C@@H]12 (stereo partly specified) [Scopolamine n-butylbromide] | inactive: -0.869 | inactive: -0.634 | inactive: -0.193
